Test results published in patent US20240391926A1, “SPIROINDOLINONE COMPOUNDS AS Kv1.3 POTASSIUM SHAKER CHANNEL BLOCKERS” (D.E. Shaw Research, LLC, priority 2021, published 2024).
The structures given here were assigned with low confidence; some may be wrong.

Sequences of proteins named here, by UniProt entry; tags and fusion partners are left off.
UniProt P22001, whole entry: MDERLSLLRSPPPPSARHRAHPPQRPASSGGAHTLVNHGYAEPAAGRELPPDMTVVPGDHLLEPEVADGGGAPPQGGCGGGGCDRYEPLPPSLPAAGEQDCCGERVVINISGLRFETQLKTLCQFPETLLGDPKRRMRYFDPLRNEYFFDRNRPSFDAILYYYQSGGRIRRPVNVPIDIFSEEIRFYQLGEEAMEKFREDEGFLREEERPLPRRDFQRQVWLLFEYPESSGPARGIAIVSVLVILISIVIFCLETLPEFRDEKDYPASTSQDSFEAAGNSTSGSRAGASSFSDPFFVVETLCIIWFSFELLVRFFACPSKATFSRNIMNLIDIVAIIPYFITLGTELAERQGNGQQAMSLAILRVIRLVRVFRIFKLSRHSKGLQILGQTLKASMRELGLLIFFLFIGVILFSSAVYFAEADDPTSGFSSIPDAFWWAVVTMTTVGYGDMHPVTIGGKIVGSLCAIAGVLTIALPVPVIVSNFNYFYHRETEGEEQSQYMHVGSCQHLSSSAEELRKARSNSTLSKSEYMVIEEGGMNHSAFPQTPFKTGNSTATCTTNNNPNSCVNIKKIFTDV

Molecular target: Kv1.3 potassium channel (Homo sapiens, UniProt P22001)
Experiment: Kv1.3 potassium channel blocker activity, automated whole-cell patch clamp (Patchliner) in CHO-K1 cells stably expressing Kv1.3
Conditions: read-out: Kv1.3 IC50, 30 nM-100 μM
Protocol: This assay is used to evaluate the disclosed compounds' activities as Kv1.3 potassium channel blockers.
CHO-K1 cells stably expressing Kv1.3 were grown in DMEM containing 10% heat-inactivated FBS, 1 mM sodium pyruvate, 2 mM L-glutamine, and G418 (500 μg/ml). Cells were grown in culture flasks at 37° C. in a 5% CO2-humidified incubator.
The cells were bathed in an extracellular solution containing 140 mM NaCl, 4 mM KCl, 2 mM CaCl2), 1 mM MgCl2, 5 mM glucose, 10 mM HEPES; pH adjusted to 7.4 with NaOH; 295-305 mOsm. The internal solution contained 50 mM KCl, 10 mM NaCl, 60 mM KF, 20 mM EGTA, 10 mM HEPES; pH adjusted to 7.2 with KOH; 285 mOsm. All compounds were dissolved in DMSO at 30 mM. Compound stock solutions were freshly diluted with external solution to concentrations of 30 nM, 100 nM, 300 nM, 1 μM, 3 μM, 10 μM, 30 μM and 100 μM. The highest content of DMSO (0.3%) was present in 100 μM.
The currents were evoked by applying 100 ms depolarizing pulses from −90 mV (holding potential) to +40 mV were applied with 0.1 Hz frequency. Control (compound-free) and compound pulse trains for each compound concentration applied contained 20 pulses. 10-second breaks were used between pulse trains (see Table A below).
Whole-cell current recordings and compound application were enabled by means of an automated patch clamp platform Patchliner (Nanion Technologies GmbH). […]

**Q.** `O=C(c1c[nH]cn1)N1CC[C@]2(C1)C(=O)Nc1cc(Cl)c(Cl)cc12` was tested. Which IC50 did it give?
**A.** < 1 µM
